In paper PMC12765388:
Results are given in words; binding and its absence hold for the method and conditions named. Binding seen in cells or lysates may run through a third protein. Some entries that bind do so weakly or less than the wild type. Where a sequence is shown, tags or fusion partners need not be part of it.

Sequences of proteins named here, by UniProt entry; tags and fusion partners are left off.
UniProt Q9UQE7: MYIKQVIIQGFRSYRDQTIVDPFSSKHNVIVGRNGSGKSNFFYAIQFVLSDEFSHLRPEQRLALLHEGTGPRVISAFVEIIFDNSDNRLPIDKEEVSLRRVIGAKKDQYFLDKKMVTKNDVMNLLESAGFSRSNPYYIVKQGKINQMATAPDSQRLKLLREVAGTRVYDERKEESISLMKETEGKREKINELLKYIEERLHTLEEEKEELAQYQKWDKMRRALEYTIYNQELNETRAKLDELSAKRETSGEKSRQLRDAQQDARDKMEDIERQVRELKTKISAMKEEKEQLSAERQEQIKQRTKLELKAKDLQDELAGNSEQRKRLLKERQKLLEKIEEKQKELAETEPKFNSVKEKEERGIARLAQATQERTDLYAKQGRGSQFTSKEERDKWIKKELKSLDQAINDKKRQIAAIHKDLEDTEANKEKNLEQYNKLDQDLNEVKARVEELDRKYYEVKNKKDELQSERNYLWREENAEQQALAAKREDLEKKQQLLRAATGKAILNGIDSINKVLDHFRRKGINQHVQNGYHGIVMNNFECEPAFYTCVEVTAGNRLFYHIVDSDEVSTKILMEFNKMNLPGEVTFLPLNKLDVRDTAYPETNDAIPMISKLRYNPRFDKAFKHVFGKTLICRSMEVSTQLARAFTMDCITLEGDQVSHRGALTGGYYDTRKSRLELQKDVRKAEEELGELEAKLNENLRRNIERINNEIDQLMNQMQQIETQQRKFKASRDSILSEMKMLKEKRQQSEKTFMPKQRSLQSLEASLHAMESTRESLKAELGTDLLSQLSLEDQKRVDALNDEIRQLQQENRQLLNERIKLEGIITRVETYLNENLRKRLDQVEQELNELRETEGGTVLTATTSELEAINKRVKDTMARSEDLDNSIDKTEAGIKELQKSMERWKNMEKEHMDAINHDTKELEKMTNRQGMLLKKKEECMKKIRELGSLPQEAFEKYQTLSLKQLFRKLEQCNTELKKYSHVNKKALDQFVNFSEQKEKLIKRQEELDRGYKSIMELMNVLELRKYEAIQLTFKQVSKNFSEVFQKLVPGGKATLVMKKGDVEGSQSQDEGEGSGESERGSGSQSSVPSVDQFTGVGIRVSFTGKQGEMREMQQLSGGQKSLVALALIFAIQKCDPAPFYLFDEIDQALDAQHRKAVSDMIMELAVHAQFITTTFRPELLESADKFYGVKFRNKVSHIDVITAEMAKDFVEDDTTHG

Molecular target: SMC3 (human (endogenous in HCT116)) (UniProt Q9UQE7)
Assay: co-IP; co-immunoprecipitation of STAG3-EGFP with SMC3 from doxycycline-induced STAG3-EGFP HCT116 cells

- binding: binds
B1: STAG3-EGFP (protein, UniProt Q9UJ98 1-1225)
chain: MSSPLQRAVGDTKRALSASSSSSASLPFDDRDSNHTSEGNGDSLLADEDTDFEDSLNRNVKKRAAKRPPKTTPVAKHPKKGSRVVHRHSRKQSEPPANDLFNAVKAAKSDMQSLVDEWLDSYKQDQDAGFLELVNFFIQSCGCKGIVTPEMFKKMSNSEIIQHLTEQFNEDSGDYPLIAPGPSWKKFQGSFCEFVRTLVCQCQYSLLYDGFPMDDLISLLTGLSDSQVRAFRHTSTLAAMKLMTSLVKVALQLSVHQDNNQRQYEAERNKGPGQRAPERLESLLEKRKELQEHQEEIEGMMNALFRGVFVHRYRDVLPEIRAICIEEIGCWMQSYSTSFLTDSYLKYIGWTLHDKHREVRLKCVKALKGLYGNRDLTTRLELFTSRFKDRMVSMVMDREYDVAVEAVRLLILILKNMEGVLTDADCESVYPVVYASHRGLASAAGEFLYWKLFYPECEIRMMGGREQRQSPGAQRTFFQLLLSFFVESELHDHAAYLVDSLWDCAGARLKDWEGLTSLLLEKDQNLGDVQESTLIEILVSSARQASEGHPPVGRVTGRKGLTSKERKTQADDRVKLTEHLIPLLPQLLAKFSADAEKVTPLLQLLSCFDLHIYCTGRLEKHLELFLQQLQEVVVKHAEPAVLEAGAHALYLLCNPEFTFFSRADFARSQLVDLLTDRFQQELEELLQSSFLDEDEVYNLAATLKRLSAFYNTHDLTRWELYEPCCQLLQKAVDTGEVPHQVILPALTLVYFSILWTLTHISKSDASQKQLSSLRDRMVAFCELCQSCLSDVDTEIQEQAFVLLSDLLLIFSPQMIVGGRDFLRPLVFFPEATLQSELASFLMDHVFIQPGDLGSGDSQEDHLQIERLHQRRRLLAGFCKLLLYGVLEMDAASDVFKHYNKFYNDYGDIIKETLTRARQIDRSHCSRILLLSLKQLYTELLQEHGPQGLNELPAFIEMRDLARRFALSFGPQQLQNRDLVVMLHKEGIQFSLSELPPAGSSNQPPNLAFLELLSEFSPRLFHQDKQLLLSYLEKCLQHVSQAPGHPWGPVTTYCHSLSPVENTAETSPQVLPSSKRRRVEGPAKPNREDVSSSQEESLQLNSIPPTPTLTSTAVKSRQPLWGLKEMEEEDGSELDFAQGQPVAGTERSRFLGPQYFQTPHNPSGPGLGNQLMRLSLMEEDEEEELEIQDESNEERQDTDMQASSYSSTSERGLDLLDSTELDIEDF
